Screen size: about 330,000 compounds; about 7,700 (2.3%) were called active. The shares of active, inactive and inconclusive entries below differ from those in the screen. Calls follow the shape of the dose curve; as a rule, active = well fitted inhibition curve with a large enough effect; inconclusive = small, poorly fitted or top-dose-only effect, or effect the other way; inactive = flat fitted curve, though single readings scatter. Potencies of inconclusive entries are doubtful fits and often do not repeat.
Test: qHTS screen for small molecules that inhibit ELG1-dependent DNA repair in human embryonic kidney (HEK293T) cells expressing luciferase-tagged ELG1; also: nearly all actives have a fitted effect of over 55% in size
Details: HEK293T ELG1-luciferase reporter, luminescence, 16 h, DNA damage induced by 5-fluorouridine; activity change, negative = inhibition: at 46.1 µM (top of the series)
How it was run: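 Cells (2,000 per well) received 5-fluorouridine plus test compound or DMSO and were incubated 16 hr at 37 °C, 5% CO2. Luciferase activity was read by luminescence 30 min after ONE-Glo addition; signal suppression marked inhibition of damage-induced ELG1 function.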
% is scaled to controls: 0 for no effect and ±100 for the full control effect; potency is read from the fitted curve at half-maximal effect.

Row | Structure (SMILES) | Potency | activity change, negative = inhibition
1 | Cc1nc(C)c2c(c1C(F)(F)F)-c1ccccc1C2(F)F | inconclusive: 23.1 µM [activator, partial curve, poor fit] | 
2 | CCc1ccc(OCC(=O)N(CC)CC)cc1 | inconclusive: 29.1 µM [activator, single point] | 
3 | COc1ccc(S(=O)(=O)N(C)c2ccc(C(=O)Nc3ccccc3C(=O)N3CCOCC3)cc2)cc1OC | inactive | 
4 | CCOc1ccc(NC(=O)C(C)Oc2ccccc2C(=O)Nc2cccc(Cl)c2Cl)cc1 (centres undefined) | inactive | 
5 | CCCCN(C(=O)C(C)(C)Oc1ccc(Cl)cc1)c1c(N)n(CCC)c(=O)[nH]c1=O | inactive | 
6 | CC(=N/O)/C(C)=N\NC(=O)c1ccccn1 | inconclusive: 20.6 µM [activator, single point] | 
7 | O=C(O)c1ccc(N/N=C/c2ccc(-c3ccccc3Cl)o2)cc1 | inconclusive: 0.92 µM [activator, full curve] | 
8 | CCOC(=O)c1ccc(NC(=O)c2cn(-c3ccccc3)nc2-c2ccncc2)cc1 | active: 18.4 µM | 
9 | COc1cc(NC(=O)CN(C)S(=O)(=O)c2ccc(C)cc2)cc(OC)c1 | inconclusive: 2.06 µM [inhibitor, partial curve, poor fit] | 
10 | N#CC1=C(N)SC(N)=C(C#N)C1Cc1ccccc1 | inconclusive: 1.03 µM [inhibitor, single point] | 
11 | COc1ccc(NC(=O)Nc2ccc(F)c(F)c2)c(OC)c1 | inactive | 
12 | COc1cccc(CNC(=O)C23CN(Cc4ccccc4)CC2C(c2ccc([N+](=O)[O-])cc2)=NO3)c1 (centres undefined) | inconclusive: 20.6 µM [inhibitor, partial curve, poor fit] | 
13 | Cc1cccc2cc(CN(C(=S)NCC(C)C)C3CCCC3)c(=O)[nH]c12 | inactive | 
14 | Cc1nn(-c2ccccc2)c(C)c1/C=N/NC(=O)c1cc(C23CC4CC(CC(C4)C2)C3)[nH]n1 | active: 16.4 µM | 
15 | COc1cccc(C2C3=C(CC(C)(C)CC3=O)Nc3cc4c(cc32)OCO4)c1 (centres undefined) | inconclusive: 25.9 µM [inhibitor, single point] | 
16 | COc1ccc(-c2cc(C(=O)OCC(=O)NC(C)(C)C)c3ccccc3n2)cc1 | inactive | 
17 | CC[C@]12c3[nH]c4cc(CCC(=O)N(C)C)ccc4c3CCN1C(=O)[C@@H](CC(=O)NCCc1ccccn1)C[C@@H]2C(=O)N1CCN(C(=O)c2ccco2)CC1 | inconclusive: 16.4 µM [activator, partial curve] | 
18 | COc1ccccc1-n1nnnc1SCC(=O)Nc1ccc(C)c(N)c1 | inconclusive: 25.9 µM [inhibitor, single point] | 
19 | CC1(C)CCCN(Cc2c(O)ccc3c(=O)c(-c4nc5ccccc5s4)c(N)oc23)C1 | inconclusive: 20.6 µM [activator, single point] | 
20 | CC(C)OC(=O)c1cccc(NC(=O)c2ccccc2)c1 | inconclusive: 4.11 µM [activator, full curve] | 
21 | Cc1cccc2cc(/C=N/NC(=O)c3ccccc3O)c(Cl)nc12 | active: 23.1 µM | 
22 | COc1cccc(C2NC(=O)CCC2[N+](=O)[O-])c1OC (centres undefined) | inactive | 
23 | COc1ccc(OC)c(CCNC(=O)c2ccc3c(=O)[nH]c4c(C(=O)NC(C)C)sc(=S)n4c3c2)c1 | active: 10.3 µM | 

Row | Structure (SMILES) | Potency | activity change, negative = inhibition
24 | CC(C)(C)NC(=S)N1CCC(C(=O)c2ccc(Cl)cc2)CC1 | inactive | 
25 | CCC(C)[C@H](NC(=O)NCc1ccccc1Cl)C(=O)OC (some centres undefined) |  | inconclusive: 8.39% [activator]
26 | O=c1c2c(-c3ccccc3)ccnc2[nH]n1-c1ccccc1 | inconclusive: 16.4 µM [activator, partial curve] | 
27 | CC(/C=C/c1ccccc1F)=N\NC(=O)c1cccc(F)c1 | inconclusive: 16.4 µM [activator, partial curve, poor fit] | 
28 | CC(C)C[C@H](NC(=O)c1[nH]cnc1C(=O)N[C@@H](C)C(=O)OC(C)(C)C)C(=O)OCc1ccccc1 | inactive | 
29 | COc1ccc(CN(C)C(=O)c2cccc(S(=O)(=O)N3CCN(c4ccccc4)CC3)c2)c(OC)c1OC | inconclusive: 29.1 µM [inhibitor, partial curve, poor fit] | 
30 | COC(=O)CCC(=O)COc1ccccc1C#N | inconclusive: 20.6 µM [activator, single point] | 
31 | Cn1c2c(c(=O)n(C)c1=O)C(C(F)(F)F)(C(F)(F)F)N=C(c1ccccc1Cl)N2 | inconclusive: 29.1 µM [inhibitor, single point] | 
32 | CCOc1ccc(N=C2NC(=O)C(CC(=O)O)S2)cc1 (centres undefined) | inconclusive: 0.58 µM [activator, single point] | 
33 | CCCOc1ccc(Cn2c(=O)oc3ccc(C)cc32)cc1OC | inactive | 
34 | COc1ccc(OC)c2c(C)cc(NCCN3CCOCC3)nc12 | inactive | 
35 | COCCn1c(SCC(=O)Nc2cc(C)on2)nnc1C(C)C | inactive | 
36 | CCOC(=O)c1ccccc1OCc1cc(/C=N/n2cncn2)ccc1OC | inconclusive: 18.4 µM [inhibitor, single point] | 
37 | CCOC(=O)/C=C/C(=O)Nc1ccc(Oc2ccccc2)cc1 | inactive | 
38 | O=c1[nH]c2ccccc2nc1/C=C/c1ccc(Cl)cc1 | inconclusive: 4.11 µM [activator, full curve] | 
39 | COC(=O)[C@]1(Cc2ccccc2)N[C@H](CN(C)C(=O)C2CCCCC2)[C@@H]2C(=O)N(Cc3ccccc3)C(=O)[C@@H]21 | inconclusive: 8.2 µM [inhibitor, partial curve] | 
40 | CC(C)(C)c1cc(C2=CSC3=NCCN23)cc(C(C)(C)C)c1O | inconclusive: 11.2 µM [inhibitor, single point] | 
41 | COc1ccccc1C(=O)NCC(=O)NCCC(c1ccccc1)c1ccccc1 | inactive | 
42 | O=C(CNc1cccc(S(=O)(=O)N2CCCC2)c1)Nc1ccc(C(F)(F)F)cc1 | inactive | 
43 | CCc1cc2c(nc1CC)CCN(CC/C(C)=N/OC[C@H]1O[C@H](c3ccccc3)C=C[C@@H]1Oc1ccc(OC)cc1)C2 | inconclusive: 9.2 µM [inhibitor, partial curve, poor fit] | 
44 | CS(=O)(=O)c1ccc(C(=O)CN2C(=O)NC3(CCCc4ccccc43)C2=O)cc1 (centres undefined) | inactive | 
45 | O=C(NC1CCCCC1)N(Cc1cc2cc3c(cc2[nH]c1=O)OCCO3)CC1CCCO1 (centres undefined) | inconclusive: 9.2 µM [inhibitor, partial curve, poor fit] | 
46 | CCOC(=O)C1=CC[C@@H](c2ccco2)N(S(=O)(=O)c2ccc(C)cc2)[C@H]1C(=O)OCC | inactive | 

In the list so far, two contain an aryl thioether with sulfur outside any ring.
Row | Structure (SMILES) | Potency | activity change, negative = inhibition
18 | COc1ccccc1-n1nnnc1SCC(=O)Nc1ccc(C)c(N)c1 | inconclusive: 25.9 µM [inhibitor, single point] | 
35 | COCCn1c(SCC(=O)Nc2cc(C)on2)nnc1C(C)C | inactive | 

Later entries:

Row | Structure (SMILES) | Potency | activity change, negative = inhibition
47 | CC(=O)Oc1cccc(NC(=O)c2ccc3c(c2)C(=O)N(CC(C)C)C3=O)c1 | inactive | 
48 | Cc1cc(C)nc(SCCCNCc2ccccc2)n1 | inconclusive: 16.4 µM [activator, partial curve, poor fit] | 
49 | COc1cccc2cc(C(=O)CS(=O)(=O)c3ccc(Cl)cc3)c(=O)oc12 | inactive | 
50 | O=C(Nc1ccc(OCc2ccccc2)cc1)c1cccs1 | inconclusive: 31.6 µM [activator, single point] | 
51 | Cc1cc(C(=O)CNCc2ccco2)c(C)n1-c1ccc(F)cc1 | inconclusive: 0.891 µM [activator, full curve, poor fit] | 
52 | O=C(CSc1cn(CC(=O)N2CCOCC2)c2ccccc12)N1CCOCC1 | inactive | 
53 | Oc1c(-c2cc(-c3ccco3)[nH]n2)ccc2ccccc12 | inconclusive: 2.06 µM [activator, partial curve] | 
54 | COc1cccc(CNCCO)c1OCc1ccccc1 | inactive | 
55 | COc1cccc(N/C(N)=N/c2nc(C(F)(F)F)cc(=O)[nH]2)c1 | inconclusive: 29.1 µM [activator, single point] | 
56 | C[C@@H](NC(=O)c1[nH]cnc1C(=O)Nc1cccc(Cl)c1)c1ccccc1 | inconclusive: 14.6 µM [inhibitor, single point] | 
57 | CC(C)C(=O)N=c1sc2cccc(F)c2n1C | inconclusive: 23.1 µM [activator, single point] | 
58 | CCn1ncc(/C=N/NC(=O)c2cc(Cl)ccc2OC)c1C | inactive | 
59 | NC(=S)Cc1nc2n(n1)Cc1ccccc1-2 | inconclusive: 18.4 µM [activator, single point] | 
60 | Cc1cc(C)n(-c2cc(N3CCN(S(=O)(=O)c4ccc(Cl)cc4)CC3)ccc2[N+](=O)[O-])n1 | inconclusive: 16.4 µM [inhibitor, partial curve] | 
61 | COc1cc(OC)cc(C(=O)O/N=C(\N)c2cccc(C)c2)c1 | inconclusive: 23.1 µM [activator, single point] | 
62 | Cc1cccc(N2CCCn3c2nc2c3c(=O)n(CC(=O)OCc3ccccc3)c(=O)n2C)c1 | inconclusive: 23.1 µM [inhibitor, single point] | 
63 | COCCn1c(SCc2csc(-c3ccccc3)n2)nc2ccccc21 | inconclusive: 23.1 µM [inhibitor, partial curve] | 
64 | O=C(Cn1ccc2ccccc2c1=O)NCCC(=O)N1CCN(c2cccc(Cl)c2)CC1 | inconclusive: 18.4 µM [inhibitor, partial curve] | 
65 | Cc1cc(=O)oc2ccc(OC(=O)CN3C(=O)c4cccc([N+](=O)[O-])c4C3=O)cc12 | inconclusive: 20.6 µM [activator, partial curve, poor fit] | 
66 | Clc1ccccc1-c1nnc2sc(-c3ccc(Br)o3)nn12 | inactive | 
67 | CCN(CC(=O)NCc1cccs1)C(=O)c1cc(Br)ccc1O | inconclusive: 6.51 µM [inhibitor, single point] | 
68 | CC(NC(=O)CCCc1c[nH]c2ccccc12)c1ccc(F)cc1 (centres undefined) | inactive | 
69 | CSc1ncccc1C(=O)Nc1cccc(S(=O)(=O)N(C)c2ccccc2)c1 | inconclusive: 20.6 µM [inhibitor, single point] | 

— PubChem BioAssay AID504467 (National Center for Advancing Translational Sciences (NCATS), 2011)
